Results from US20250346630A1, “Engineering Peptides Using Peptide Epitope Linker Evolution” (AGENCY FOR SCIENCE, TECHNOLOGY AND RESEARCH, priority 2022, published 2025).
Results are given in words; binding and its absence hold for the method and conditions named. Some entries that bind do so weakly or less than the wild type.

Amino acid sequences for entries named in this document (tags omitted). A change or cut given only in a name is not applied to a line headed by its entry. Chains listed by the source or under a name are the forms on record and can include a tag or linker.
UniProt P06730: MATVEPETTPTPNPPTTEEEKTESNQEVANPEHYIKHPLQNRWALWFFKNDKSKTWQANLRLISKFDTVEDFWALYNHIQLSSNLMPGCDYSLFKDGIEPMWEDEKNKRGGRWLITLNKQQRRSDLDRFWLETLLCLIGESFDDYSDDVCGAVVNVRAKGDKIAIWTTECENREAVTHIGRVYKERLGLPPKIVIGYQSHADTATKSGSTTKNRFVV
sortase-labelled N-terminally biotinylated eIF4E (P06730, form named): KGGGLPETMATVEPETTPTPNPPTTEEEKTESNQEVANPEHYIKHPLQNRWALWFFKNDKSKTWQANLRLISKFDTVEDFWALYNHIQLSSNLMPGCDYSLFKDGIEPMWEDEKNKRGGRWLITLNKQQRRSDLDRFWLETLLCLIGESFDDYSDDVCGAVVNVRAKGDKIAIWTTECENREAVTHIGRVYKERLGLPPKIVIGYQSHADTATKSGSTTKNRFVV

B1: negative control M4 (FLAG-tagged, expressed in HEK293 cells) (designed binder)
VH: MSEVQLVESGGGLVQPGGSLRLSSAISGFSISSTSIDWVRQAPGKGLEWVARISPSSGSTSYADSVKGRFTISADTSKNTVYLQMNSLRAEDTAVYYTGRVAKALNSSSPSFVVNTYSSFGFDYRGQGTLVTVSSGAA
notes: not shown: C-terminal 3x FLAG tag of the pCDNA3.1 vector

Each binder was assayed against sortase-labelled N-terminally biotinylated eIF4E (UniProt P06730) (assay: M13 linear 12mer phage selection on immobilised biotinylated eIF4E, NGS abundance heat map, 3 replicate columns [CONT.) D]).

Row | binding | Binder
1 | binds | TISYDRSTLFLF
2 | binds | YLMQTNQWQIAS
3 | binds | KLWSIPTNFLLP
4 | binds | AQSYTRMELLRL
5 | binds | SGIQQRMIVTWP
6 | binds | LPRMMSDGEAGD
7 | binds | VEGQNLEALVTD
8 | binds | HYSRTDLLAYRW
9 | binds | DSAKERLAVSGT

These binders were tested against sortase-labelled N-terminally biotinylated eIF4E (UniProt P06730) (assay: M13 C7C (disulphide constrained 7mer) phage selection on immobilised biotinylated eIF4E, NGS abundance heat map, 3 replicate columns [CONT.) C]).

Row | binding | Binder
10 | binds | CETGFFLKC (two flanking Cys of the disulphide constrained C7C library)
11 | binds | CEMGYFGNC (two flanking Cys of the disulphide constrained C7C library)
12 | binds | CETGFFLRC (two flanking Cys of the disulphide constrained C7C library)
13 | binds | CIHSPTSLC (two flanking Cys of the disulphide constrained C7C library)
14 | binds | CETGFYKTC (two flanking Cys of the disulphide constrained C7C library)
15 | binds | CETGYFSQC (two flanking Cys of the disulphide constrained C7C library)
16 | binds | CELGFYRLC (two flanking Cys of the disulphide constrained C7C library)

The binders below were run against eIF4E of the NanoBit eIF4E:eIF4G^604-646 system (UniProt P06730) (assay: NanoBit competition in HEK293 cells: co-expressed VH domain against the pair SmBIT-eIF4E : eIF4G-LgBIT [CONT.) C]).

Row | binding | Binder
17 | binds | B1
